According to the supplement of paper PMC12823440, “Inhibitors supercharge kinase turnover through native proteolytic circuits” (Nature, 2025):
Where a name gives a salt, the structure may show the parent alone. This is one part of the list. Hit calls seldom repeat between salt and free forms of one compound.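 Kinases were expressed as nanoluciferase fusions in K562 cells and luminescence was read every 4 h between 2 and 18 h as percent of control, DMSO set to 100% and a positive control to 0%. A time point counts as decreased when the signal drops significantly (2 sigma). The hit call is the authors' own, does not follow from the count of time points alone, and its rule is not shown.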

Sequences of proteins named here, by UniProt entry; tags and fusion partners are left off.
UniProt P31152, whole entry: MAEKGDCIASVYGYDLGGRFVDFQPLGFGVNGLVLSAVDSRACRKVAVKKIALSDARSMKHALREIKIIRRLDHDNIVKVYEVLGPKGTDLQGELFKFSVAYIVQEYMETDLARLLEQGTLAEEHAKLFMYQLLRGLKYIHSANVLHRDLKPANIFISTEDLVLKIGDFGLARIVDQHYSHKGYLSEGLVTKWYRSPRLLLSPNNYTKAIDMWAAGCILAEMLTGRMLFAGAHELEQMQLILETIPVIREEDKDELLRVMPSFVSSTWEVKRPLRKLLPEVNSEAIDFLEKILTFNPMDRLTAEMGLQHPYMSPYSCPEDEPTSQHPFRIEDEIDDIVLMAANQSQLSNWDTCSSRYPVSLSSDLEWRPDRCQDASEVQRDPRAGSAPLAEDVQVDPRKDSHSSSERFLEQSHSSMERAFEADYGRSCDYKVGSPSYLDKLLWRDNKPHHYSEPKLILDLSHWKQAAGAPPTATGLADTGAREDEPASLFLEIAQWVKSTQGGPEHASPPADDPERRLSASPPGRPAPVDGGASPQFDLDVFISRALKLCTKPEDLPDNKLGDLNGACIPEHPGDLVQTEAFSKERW

The molecules below were run against MAPK4 (UniProt P31152) (assay: kinase-Nluc reporter destabilization hit call (1 = scored as downregulated) (binary); higher = compound decreases kinase abundance). Conditions: K562; 2-18 h.

kinase-Nluc reporter destabilization hit call, inactive:
Oc1ccccc1C(=S)N1CCCC1 (10 µM) 0
COc1ccc(-n2c(C)c([N+](=O)[O-])c3ccc(O)cc32)cc1 (10 µM) 0
CN(C)Cc1cccc(N=C(c2ccccc2)c2c(O)[nH]c3cc(C(N)=O)ccc23)c1 (10 µM) 0
CCCCNC(=N)NC(=N)N [Buformin (hydrochloride)] (2.5 µM) 0
O=c1ccoc2cc(O)ccc12 [7-Hydroxy-4H-chromen-4-one] (10 µM) 0
C=CC(=O)Nc1cccc(-n2c(=O)cc(C)c3cnc(Nc4ccc(OCCN(C)C)cc4OC)nc32)c1 (10 µM) 0
O=c1[nH]ccc2cc(OC3CCNCC3)ccc12 (10 µM) 0
CCCCOc1ccc(CC/C=C2\SC(=O)N(CCN)C2=O)cc1 [K145 (hydrochloride)] (2.5 µM) 0
CC(C)(O)[C@@H]1CC[C@](C)([C@H]2[C@@H](O)C[C@@]3(C)[C@@H]4C[C@H](O[C@@H]5O[C@H](CO)[C@@H](O)[C@H](O)[C@H]5O)[C@H]5C(C)(C)[C@@H](O[C@@H]6OC[C@@H](O)[C@H](O)[C@H]6O[C@@H]6O[C@H](CO)[C@@H](O)[C@H](O)[C@H]6O)CC[C@@]56C[C@@]46CC[C@]23C)O1 [Astragaloside VI] (10 µM) 0
O=C1NC(=O)C(c2cn(-c3ccccc3)nc2-c2ccc(F)cc2)N1 (configuration not stated) (10 µM) 0
C[C@@H]1COCCN1c1cc(C2([S@](C)(=N)=O)CC2)nc(-c2cc[nH]c3nccc2-3)n1 [Ceralasertib] (2.5 µM) 0
CN(C)Cc1cccc(N=C(c2ccccc2)c2c(O)[nH]c3cc(C(=O)N(C)C)ccc23)c1 (10 µM) 0
CN1CCN(CCCNc2ncc(Cl)c(-c3cc4c(C(=O)NC5CC5)cccc4s3)n2)CC1 (10 µM) 0
CC[C@H](Nc1ncnc2[nH]cnc12)c1oc2ccccc2c(=O)c1-c1cccc(F)c1 [Tenalisib] (10 µM) 0
O=C1NC(=O)C(c2cnc3ccccn23)=C1c1cn2c3c(cc(F)cc13)CN(C(=O)N1CCCCC1)CC2 (2.5 µM) 0
COc1c(C)c(C(=O)c2ccc(N)c(C(=O)O)c2)n2ccccc12 (10 µM) 0
N#Cc1ccc(-c2c(-c3ncn[nH]3)sc(N3CCOCC3)c2C#N)c(F)c1 (10 µM) 0
N#C/C(=C(/N)Sc1ccc(N)cc1)c1ccccc1C(F)(F)F (10 µM) 0
O=C(Nc1ccc(Cl)cc1)C1CCCN(C(=O)c2cccc(-c3ccco3)c2)C1 (configuration not stated) (2.5 µM) 0
CC(=O)Nc1nc(C)c(-c2nc(N3CCCC(O)C3)no2)s1 (configuration not stated) (10 µM) 0
CCc1ccc(C(=O)COc2ccc(CC3SC(=O)NC3=O)cc2)nc1 (configuration not stated) (10 µM) 0
NC(=O)c1ccc(-c2cnn3ccc(NCc4cccnc4)nc23)cc1 (2.5 µM) 0
Nc1[nH]c(=O)nc2c1ncn2[C@@H]1O[C@H](CO)[C@@H](O)[C@H]1O [Crotonoside] (10 µM) 0
CC1(COc2ccc3c(c2)ncn3-c2ccc3cccc(N4CCC(N)CC4)c3n2)COC1 [Crenolanib] (2.5 µM) 0
CSc1ccc(CN2CCCC(Nc3ccc4[nH]ncc4c3)C2)cc1 (configuration not stated) [Rho-Kinase-IN-1] (10 µM) 0
N=C(N)NC(=N)NCCc1ccccc1 [Phenformin (hydrochloride)] (10 µM) 0
C=C(F)C(=O)N1CCN(c2nc(OC[C@@H]3CCCN3C)nc3c2CCN(c2cccc4cccc(Cl)c24)C3)C[C@@H]1CC#N (2.5 µM) 0

A section of the results above, as a working copy:
kinase-Nluc reporter destabilization hit call, inactive:
CC1(COc2ccc3c(c2)ncn3-c2ccc3cccc(N4CCC(N)CC4)c3n2)COC1 [Crenolanib] (2.5 µM) 0
CSc1ccc(CN2CCCC(Nc3ccc4[nH]ncc4c3)C2)cc1 (configuration not stated) [Rho-Kinase-IN-1] (10 µM) 0
